Source: PMC12282863
Results are given in words; binding and its absence hold for the method and conditions named. Binding seen in cells or lysates may run through a third protein.

Target: Plasmodium falciparum apicoplast chaperonin 60, endogenously V5-tagged (CPN60^V5-apt) (P. falciparum)
Assay: co-IP; anti-V5 (D3H8Q) antibody crosslinked to protein G Dynabeads, precipitating CPN60^V5 from sonicated extract of CPN60^V5-apt; ClpP^DEAD-Ty parasites; extraction buffer 40 mM Tris HCl pH 7.6, 75 mM KCl, 1 mM EDTA, 15% glycerol; 4°C; blotted with anti-Ty, anti-V5 and anti-aldolase

B1: aldolase (P. falciparum, endogenous) (protein, UniProt Q7KQL9 1-369)
chain: MAHCTEYMNAPKKLPADVAEELATTAQKLVQAGKGILAADESTQTIKKRFDNIKLENTIENRASYRDLLFGTKGLGKFISGAILFEETLFQKNEAGVPMVNLLHNENIIPGIKVDKGLVNIPCTDEEKSTQGLDGLAERCKEYYKAGARFAKWRTVLVIDTAKGKPTDLSIHETAWGLARYASICQQNRLVPIVEPEILADGPHSIEVCAVVTQKVLSCVFKALQENGVLLEGALLKPNMVTAGYECTAKTTTQDVGFLTVRTLRRTVPPALPGVVFLSGGQSEEEASVNLNSINALGPHPWALTFSYGRALQASVLNTWQGKKENVAKAREVLLQRAEANSLATYGKYKGGAGGENAGASLYEKKYVY
binding: no binding
